Measurements reported in PubChem BioAssay AID1508597 (Cure First, 2020).
Shown is one part, drawn at random, of about 2,100 reagents. 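Calls flag viability under 80% in either arm, not effects specific to rucaparib; the reference for percent is not stated.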 The record does not give: the 100% reference.

Assay: 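Genes whose silencing sensitises or protects ovarian cancer cells against rucaparib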 (primary screen)
Cell system: human ovarian carcinoma lines grown from tumours: OCI-P5x (papillary serous) and OCI-C5x (clear cell)
Reagent: siRNA pool against human genes, 1.25 pmol siRNA per well
Timing: 72 h or 96 h, depending on the cell culture
Treatment: rucaparib 20 µM (about IC30) or vehicle, present until read-out
Detection: 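ATP luminescence measured at 72 or 96 h according to the culture, then normalised and expressed as percent viability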
Scale: viability, normalised: higher = more viable cells remaining
Hit rule: 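a well counts as a hit if its normalised viability is under 80 percent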
Calls: active = viability under 80%; inactive = viability 80% or more

viability, normalised (%) | Outcome | gene | rucaparib or vehicle | cell line | technical replicate
49.9 | active | DHX58 (DExH-box helicase 58) | Rucaparib | OCI-C5x (clear cell) | 1
51.2 | active | DHX58 (DExH-box helicase 58) | Rucaparib | OCI-C5x (clear cell) | 2
35.2 | active | DHX58 (DExH-box helicase 58) | Rucaparib | OCI-C5x (clear cell) | 3
67.9 | active | DHX58 (DExH-box helicase 58) | Rucaparib | OCI-P5x (serous) | 1
77.7 | active | DHX58 (DExH-box helicase 58) | Rucaparib | OCI-P5x (serous) | 2
75.2 | active | DHX58 (DExH-box helicase 58) | Rucaparib | OCI-P5x (serous) | 3
56.3 | active | DHX58 (DExH-box helicase 58) | Vehicle | OCI-C5x (clear cell) | 1
57 | active | DHX58 (DExH-box helicase 58) | Vehicle | OCI-C5x (clear cell) | 2
54.2 | active | DHX58 (DExH-box helicase 58) | Vehicle | OCI-C5x (clear cell) | 3
65.4 | active | DHX58 (DExH-box helicase 58) | Vehicle | OCI-P5x (serous) | 1
76.6 | active | DHX58 (DExH-box helicase 58) | Vehicle | OCI-P5x (serous) | 2
67.9 | active | DHX58 (DExH-box helicase 58) | Vehicle | OCI-P5x (serous) | 3
54.8 | active | LIG1 (DNA ligase 1) | Rucaparib | OCI-C5x (clear cell) | 1
53.3 | active | LIG1 (DNA ligase 1) | Rucaparib | OCI-C5x (clear cell) | 2
76.6 | active | LIG1 (DNA ligase 1) | Rucaparib | OCI-C5x (clear cell) | 3
75.3 | active | LIG1 (DNA ligase 1) | Rucaparib | OCI-P5x (serous) | 1
84.5 | inactive | LIG1 (DNA ligase 1) | Rucaparib | OCI-P5x (serous) | 2
62.7 | active | LIG1 (DNA ligase 1) | Rucaparib | OCI-P5x (serous) | 3
53 | active | LIG1 (DNA ligase 1) | Vehicle | OCI-C5x (clear cell) | 1
60.9 | active | LIG1 (DNA ligase 1) | Vehicle | OCI-C5x (clear cell) | 2
59.3 | active | LIG1 (DNA ligase 1) | Vehicle | OCI-C5x (clear cell) | 3
66.7 | active | LIG1 (DNA ligase 1) | Vehicle | OCI-P5x (serous) | 1
78.2 | active | LIG1 (DNA ligase 1) | Vehicle | OCI-P5x (serous) | 2
71 | active | LIG1 (DNA ligase 1) | Vehicle | OCI-P5x (serous) | 3
48.7 | active | RCOR2 (REST corepressor 2) | Rucaparib | OCI-C5x (clear cell) | 1
49 | active | RCOR2 (REST corepressor 2) | Rucaparib | OCI-C5x (clear cell) | 2
37.6 | active | RCOR2 (REST corepressor 2) | Rucaparib | OCI-C5x (clear cell) | 3
62 | active | RCOR2 (REST corepressor 2) | Rucaparib | OCI-P5x (serous) | 1
52.1 | active | RCOR2 (REST corepressor 2) | Rucaparib | OCI-P5x (serous) | 2
60.9 | active | RCOR2 (REST corepressor 2) | Rucaparib | OCI-P5x (serous) | 3
50 | active | RCOR2 (REST corepressor 2) | Vehicle | OCI-C5x (clear cell) | 1
51.6 | active | RCOR2 (REST corepressor 2) | Vehicle | OCI-C5x (clear cell) | 2
52.2 | active | RCOR2 (REST corepressor 2) | Vehicle | OCI-C5x (clear cell) | 3
68 | active | RCOR2 (REST corepressor 2) | Vehicle | OCI-P5x (serous) | 1
73 | active | RCOR2 (REST corepressor 2) | Vehicle | OCI-P5x (serous) | 2
155 | inactive | RCOR2 (REST corepressor 2) | Vehicle | OCI-P5x (serous) | 3
50 | active | ABCC1 | Rucaparib | OCI-C5x (clear cell) | 1
39.5 | active | ABCC1 | Rucaparib | OCI-C5x (clear cell) | 2
52.2 | active | ABCC1 | Rucaparib | OCI-C5x (clear cell) | 3
92 | inactive | ABCC1 | Rucaparib | OCI-P5x (serous) | 1
97.2 | inactive | ABCC1 | Rucaparib | OCI-P5x (serous) | 2
70.4 | active | ABCC1 | Rucaparib | OCI-P5x (serous) | 3
39.9 | active | ABCC1 | Vehicle | OCI-C5x (clear cell) | 1
54 | active | ABCC1 | Vehicle | OCI-C5x (clear cell) | 2
41.4 | active | ABCC1 | Vehicle | OCI-C5x (clear cell) | 3
96.1 | inactive | ABCC1 | Vehicle | OCI-P5x (serous) | 1
78.6 | active | ABCC1 | Vehicle | OCI-P5x (serous) | 2
91.6 | inactive | ABCC1 | Vehicle | OCI-P5x (serous) | 3
41.5 | active | ARID3B (AT-rich interaction domain 3B) | Rucaparib | OCI-C5x (clear cell) | 1
50 | active | ARID3B (AT-rich interaction domain 3B) | Rucaparib | OCI-C5x (clear cell) | 2
60.2 | active | ARID3B (AT-rich interaction domain 3B) | Rucaparib | OCI-C5x (clear cell) | 3
53.9 | active | ARID3B (AT-rich interaction domain 3B) | Rucaparib | OCI-P5x (serous) | 1
52.3 | active | ARID3B (AT-rich interaction domain 3B) | Rucaparib | OCI-P5x (serous) | 2
46.3 | active | ARID3B (AT-rich interaction domain 3B) | Rucaparib | OCI-P5x (serous) | 3
53.4 | active | ARID3B (AT-rich interaction domain 3B) | Vehicle | OCI-C5x (clear cell) | 1
40.1 | active | ARID3B (AT-rich interaction domain 3B) | Vehicle | OCI-C5x (clear cell) | 2
35.8 | active | ARID3B (AT-rich interaction domain 3B) | Vehicle | OCI-C5x (clear cell) | 3
44.3 | active | ARID3B (AT-rich interaction domain 3B) | Vehicle | OCI-P5x (serous) | 1
60.6 | active | ARID3B (AT-rich interaction domain 3B) | Vehicle | OCI-P5x (serous) | 2
43.9 | active | ARID3B (AT-rich interaction domain 3B) | Vehicle | OCI-P5x (serous) | 3
